# Reference: PubChem BioAssay AID493014 (National Center for Advancing Translational Sciences (NCATS), 2011)
# Among all 340,000 compounds or so, about 170 (0.05%) were called active. Inconclusive results, whose numbers are uncertain, are shown with a selection of clear calls. Calls come from the whole dose curve; as a rule, active = well fitted inhibition curve with a large enough effect in the signal ratio, with a control signal flat (not every such curve was filed as active); inconclusive = small, poorly fitted or top-dose-only effect, or effect the other way, or a change in a side signal; inactive = flat fitted curve, though single readings scatter; the % refers to the signal ratio. Potencies beside an inconclusive call are fits to weak or partial responses and may not hold up.
# Experiment: qHTS Assay to Find Inhibitors of Chronic Active B-Cell Receptor Signaling;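 for activity change, negative = inhibition: plate controls were basal doxycycline-induced cells for no effect and cells given 10 µM MG132 for full effect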
# Conditions: ABC-DLBCL IkBa-CBG/CBR reporter, luminescence ratio (green luciferase fused to IkBa over red control in TMD8 lymphoma cells), 4 h; activity change, negative = inhibition: at 46.1 µM (top of the series)
# Summary of the method: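 TMD8 ABC-DLBCL cells carrying doxycycline-inducible green luciferase fused to IkappaBalpha plus unfused red luciferase were exposed to compounds (up to 46 uM) for 4 hrs at 37C. Activity came from the overlap-corrected green/red luminescence ratio.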
# Potency is the fitted concentration of half-maximal effect.
Structure (SMILES),"activity change, negative = inhibition",Potency
C=C(C)CNC(=S)N/N=C1\CCCCc2ccccc21,inconclusive: -0.273%,
O=C(Nc1cccc2cccnc12)c1cccc2ccccc12,inconclusive: 1.11%,
S=C(Nc1ccccc1)Nc1nccs1,,"inconclusive: 11.2 µM [cytotoxic, partial curve]"
O=C(NCCN1Cc2ccccc2C1=O)c1cccs1,inconclusive: -18.1%,
O=C(O)COc1ccccc1/C=N/NC(=O)c1cc2ccccc2cc1O,,"inconclusive: 12.6 µM [falling, single point]"
CCc1ccccc1NC(=O)CN1CCN(C(=O)c2ccc(OCc3cn4ccccc4n3)cc2)CC1,inconclusive: -11.7%,
COc1ccccc1C(=O)NCC(=O)NNC(=O)C1COc2ccccc2O1 (stereo not given),inactive,
CC(=C/c1ccco1)/C=N/NC(=O)c1ccncc1,inconclusive: -11.3%,
COc1ccc(C(=O)COC(=O)c2ccccn2)c(OC)c1,inconclusive: 7.95%,
Cc1cc(C)nc(SCc2cc(=O)c(OC(=O)c3ccco3)co2)n1,,"inconclusive: 23.1 µM [falling, single point]"
COC(=O)c1ccc(C2c3c(oc4ccc(Cl)cc4c3=O)C(=O)N2CCN2CCOCC2)cc1 (stereo not given),,"inconclusive: 22.4 µM [falling, single point]"
COc1ccc(/C=C(\C#N)c2c[nH]c3ccccc23)cc1,,"inconclusive: 7.08 µM [falling, partial curve, poor fit]"
O=C(C1CCN(C2CCN(Cc3cccc4c3OCO4)CC2)CC1)N1CCOCC1,inconclusive: 2.69%,
COc1cc2[nH]c(=S)n(C3CCN(Cc4ccccc4)CC3)c(=O)c2cc1OC,inactive,
CCCOC(=O)c1ccc(NC(=O)c2cnccn2)cc1,inconclusive: -0.288%,
Cc1ccc(NC(=O)CSc2nc3ncc(Br)cc3[nH]2)cc1C,inactive,
COc1ccc(-c2nnc(SCC(=O)Nc3cccnc3Cl)n2C)cc1,inconclusive: 5.39%,
CCOc1ccc(-c2noc(CCCC(N)=O)n2)cc1OC,,"inconclusive: 5.17 µM [falling, single point]"
COc1ccc(/C=N/Nc2nnc(Cc3ccccc3)c(=O)[nH]2)cc1OC,,"inconclusive: 35.5 µM [falling, single point]"
CCN(CC)C(=O)COc1ccc2oc(-c3ccco3)cc(=O)c2c1,inconclusive: 12.1%,
CC(Oc1ccccc1)C(=O)Nc1cccc(-c2nc3ccccc3[nH]2)c1 (stereo not given),,"inconclusive: 0.447 µM [falling, partial curve, poor fit]"
OC(c1ccc(F)cc1)C(CN1CCOCC1)c1ccccc1 (stereo not given),inactive,
Cc1[nH]n(-c2ccccc2)c(=O)c1/C=N/N1C(=O)c2cccc3cccc(c23)C1=O,inconclusive: 16.1%,
CCOc1ccc(C2C3=C(Nc4nc(N)[nH]c(=O)c42)c2ccccc2C3=O)cc1 (stereo not given),inactive,
O=C1CCCC(=O)C1=Cc1c[nH]c2ccccc12,inconclusive: -0.916%,

Structure (SMILES),"activity change, negative = inhibition",Potency
Cc1sc2nc(CN3CCCCC3)nc(N3CCN(C(=O)c4ccco4)CC3)c2c1C,inconclusive: -5.21%,
COc1cc(/C=C2\CC/C(=C\c3ccc(OCCO)c(OC)c3)C2=O)ccc1OCCO,,"inconclusive: 35.5 µM [falling, partial curve, poor fit]"
O=C(N/N=C/c1ccc(N2CCOCC2)cc1)c1ccccn1,,"inconclusive: 35.5 µM [falling, single point]"
Cc1ccc(S(=O)(=O)CNC(=S)c2ccc3ccccc3c2)cc1,,"inconclusive: 25.9 µM [falling, single point]"
CN(CC(=O)Nc1ccccc1Cl)C1CCS(=O)(=O)C1 (stereo not given),inactive,
COc1cccc(/C(O)=C2/C(=O)C(=O)N(c3ccccn3)C2c2ccc(OC)c(OC)c2)c1 (stereo not given),inconclusive: 7.1%,
Nc1ccccc1O,,"inconclusive: 2.31 µM [falling, full curve]"
CCOc1ccc(NC(=O)Nc2ccccc2SC)cc1,inconclusive: 189%,
CC(C)CN(C(=O)COC(=O)CCCc1c[nH]c2ccccc12)c1c(N)n(Cc2ccccc2)c(=O)[nH]c1=O,inactive,
CCOC(=O)c1c[nH]c2c(C(=O)c3ccccc3)cc(Cl)cc2c1=O,inconclusive: 5.21%,
COCCNC(=O)COc1ccc(Br)cc1Cl,inconclusive: 7.44%,
CCN1CCN(Cc2ccc(NC(=O)c3ccc(C)c(NC(=O)c4ccno4)c3)cc2C(F)(F)F)CC1,,"inconclusive: 11.2 µM [falling, partial curve, poor fit]"
CCN(CC)C1CCN(Cc2cn[nH]c2-c2ccc(OC)c(F)c2)C1 (stereo not given),inactive,
c1cncc(-c2noc(C34CC5CC(CC(C5)C3)C4)n2)c1,inconclusive: 0.691%,
CC1Oc2ccccc2N(CC(=O)Nc2ccccc2F)C1=O (stereo not given),inconclusive: 2.85%,
CC1CCCCC12NC(=O)N(CC(=O)N1CCN(C(=O)c3ccco3)CC1)C2=O (stereo not given),inconclusive: 1.01%,
Oc1ccccc1/C=N/Nc1nc2ccccc2o1,inconclusive: 396%,
CCn1c(Cn2nnc(-c3ccccc3)n2)nnc1SCc1ccc(Cl)c(Cl)c1,inconclusive: -15%,
Cc1cc(=O)n(CCCc2ccccc2)[nH]1,,"inconclusive: 29.1 µM [falling, single point]"
O=C(O)c1ccccc1N=Nc1c(O)[nH]c2ccc([N+](=O)[O-])cc12,,"inconclusive: 10 µM [falling, partial curve]"
CCN(CC)S(=O)(=O)c1ccc2oc(Nc3ccc(OC)cc3OC)nc2c1,inconclusive: -9.33%,
C[C@H](CO)N1C[C@H](C)[C@@H](CN(C)Cc2ccc(Cl)c(Cl)c2)Oc2c(NS(=O)(=O)c3cccs3)cccc2C1=O,inconclusive: -1.25%,
COc1cccc(Nc2nc(NCCO)c3ccccc3n2)c1,,"inconclusive: 0.259 µM [activator, full curve]"
Oc1ccc(/C=N/Nc2nccnc2Cl)cc1,,"inconclusive: 29.1 µM [rising, single point]"
CCCN(Cc1cc2ccc(C)cc2[nH]c1=O)S(=O)(=O)c1ccccc1,inconclusive: 462%,

# Some of the entries so far, bar-delimited.
Structure (SMILES) | activity change, negative = inhibition | Potency
CC1Oc2ccccc2N(CC(=O)Nc2ccccc2F)C1=O (stereo not given) | inconclusive: 2.85% | 
CC1CCCCC12NC(=O)N(CC(=O)N1CCN(C(=O)c3ccco3)CC1)C2=O (stereo not given) | inconclusive: 1.01% | 
Oc1ccccc1/C=N/Nc1nc2ccccc2o1 | inconclusive: 396% | 
